Measurements reported in publication PMC6925144, “A prospective compound screening contest identified broader inhibitors for Sirtuin 1” (Scientific Reports, 2019).
Whole data set: some 3,200 compounds, median “TSA(with NAD+) / Primary screening (TSA) / delta Tm (K)” near -0.04, cut for the highest 2% near 0.37. Some of the results follow.

By UniProt entry, the sequences of proteins in these tests, tags left out. Residues count along the entry.
UniProt Q96EB6, 2-747 limits assumed: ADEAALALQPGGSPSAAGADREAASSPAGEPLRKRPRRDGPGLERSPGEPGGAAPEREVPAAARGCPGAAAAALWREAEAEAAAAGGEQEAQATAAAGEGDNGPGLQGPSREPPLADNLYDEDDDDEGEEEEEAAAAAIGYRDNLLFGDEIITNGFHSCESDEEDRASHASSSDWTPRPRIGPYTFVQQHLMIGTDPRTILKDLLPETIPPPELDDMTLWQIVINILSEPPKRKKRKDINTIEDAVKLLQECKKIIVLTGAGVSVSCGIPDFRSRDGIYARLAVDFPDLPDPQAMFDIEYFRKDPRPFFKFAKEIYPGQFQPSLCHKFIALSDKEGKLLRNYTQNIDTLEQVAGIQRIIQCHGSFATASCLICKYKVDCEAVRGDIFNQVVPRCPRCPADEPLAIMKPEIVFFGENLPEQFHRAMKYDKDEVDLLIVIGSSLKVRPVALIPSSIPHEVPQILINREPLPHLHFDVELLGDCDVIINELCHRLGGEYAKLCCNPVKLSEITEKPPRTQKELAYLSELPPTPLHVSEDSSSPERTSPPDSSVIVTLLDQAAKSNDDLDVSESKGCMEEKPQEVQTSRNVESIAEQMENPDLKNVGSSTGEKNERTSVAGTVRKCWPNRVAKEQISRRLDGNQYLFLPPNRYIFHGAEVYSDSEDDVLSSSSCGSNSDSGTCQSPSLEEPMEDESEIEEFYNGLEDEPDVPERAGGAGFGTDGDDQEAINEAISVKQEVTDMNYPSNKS

target: NAD-dependent deacetylase Sirtuin 1 (human, UniProt Q96EB6); test: primary screen, delta tm; set-up: single well (n = 1, as 'the same TSA'); conditions: 10 µM

SMILES | TSA(with NAD+) / Primary screening (TSA) / delta Tm (K)
NC(=O)c1cc(-c2ccccc2)nc2ccccc12 | -0.08 K
O=C(O)CSc1ccc2c3c(cccc13)C(=O)c1ccccc1-2 | -0.23 K
Oc1ccc(N2CCN(c3ncnc4sc5c(c34)CCC5)CC2)cc1 | -0.19 K
Cc1cc(C)c2cc(CN3CCC(C(N)=O)CC3)[nH]c2c1 | -0.11 K
CCOC(=O)C(C)N1CCN(S(=O)(=O)c2cc(C(N)=O)n(C)c2)CC1 (stereo not shown) | -0.12 K
C#CCNC(=O)c1ccc2[nH]c3c(c2c1)CCCC3 | -0.38 K
NC(=O)CC1CCN(C(=O)c2ccn(-c3cccc(F)c3)n2)CC1 | -0.16 K
Cc1[nH]c(-c2cccc(Cl)c2)nc1C(=O)Nc1ccc(F)c(C(N)=O)c1 | -0.16 K
COc1cccc(CSC(C)C(N)=O)c1 (stereo not shown) | -0.03 K
CCCOC(=O)c1ccc(NC(=O)c2cccc(S(=O)(=O)N(C)c3ccc(OC)cc3)c2)cc1 | 0.29 K
Cc1ccc(C)c(NC(=O)Cc2nc(COC(=O)c3ccc(O)cc3O)cs2)c1 | 0.05 K
Cc1nc2ccc(Cl)cc2cc1C(=O)NCC(c1ccccc1)N1CCCC1 (stereo not shown) | -0.28 K
COc1ccc(C=C2C(=O)NC(=S)NC2=O)cc1 | 0.08 K
NC(=O)c1ccc(S(=O)(=O)N2CCN(CC(O)c3ccccc3)CC2)cc1 (stereo not shown) | 0.06 K
CCCn1c(NC(=O)c2ccc3c(c2)CCC(=O)N3)nc2ccccc21 | 0.15 K
NC(=O)c1ccc(NC(=O)C(Cc2ccccc2)NC(=O)c2ccccc2)cc1 (stereo not shown) | -0.19 K
CN(CC(=O)Nc1ccc(Cl)cc1)C(=O)CCn1ccc2ccccc21 | -0.01 K
CC(OC(=O)c1cccc(S(=O)(=O)Nc2ccc(F)cc2)c1)c1nc2ccccc2c(=O)[nH]1 (stereo not shown) | 0.25 K
Cc1ccc(CSc2nc3ccsc3c(=O)n2C)cc1 | -0.04 K
CC(C)C(NC(=O)c1ccco1)C(=O)NNC(=O)C1CC1 (stereo not shown) | -0.18 K
CC(NC(=O)COC(=O)c1ccccc1C(=O)N1CCN(c2ccccc2)CC1)C12CC3CC(CC(C3)C1)C2 (stereo not shown) | -0.06 K
Cc1ccc(OCCN)cc1 | 0.15 K
CCn1c2ccccc2c2cc(NC(=O)C(C)OC(=O)c3cccc(S(=O)(=O)Nc4ccc(Cl)cc4)c3)ccc21 (stereo not shown) | 0.31 K
CC(C(N)=O)N(C)Cc1ccccc1Cl (stereo not shown) | 0.25 K

SMILES | TSA(with NAD+) / Primary screening (TSA) / delta Tm (K)
O=C1CCC(C(=O)Nc2cccc(Cn3cnc4ccccc43)c2)N1 (stereo not shown) | 0.03 K
Sc1nc2ccccc2c2nc(-c3cc4ccccc4o3)nn12 | 0.06 K
N#Cc1ccc(S(=O)(=O)NCc2ccc(S(N)(=O)=O)s2)cc1 | -0.13 K
c1coc(CNc2ncnc3ccsc23)c1 | -0.11 K
CCCN(CC(=O)Nc1ccc(C(N)=O)cc1)CC(=O)Nc1ccccc1C | -0.08 K
O=C(Oc1ccc2oc3ccccc3c2c1)c1ccc([N+](=O)[O-])cc1 | -0.08 K
O=S(=O)(c1cccc(Br)c1)N1CCN(c2ncnc3cc(Cl)ccc23)CC1 | -0.03 K
CN(CC(=O)Nc1ccc(Cl)cc1)C(=O)c1ccccc1SCC(=O)NC12CC3CC(CC(C3)C1)C2 | 0.16 K
Cc1ccc(C(=O)C2=C(O)C(=O)N(CCCN3CCOCC3)C2c2ccc([N+](=O)[O-])cc2)cc1 (stereo not shown) | -0.13 K
CN(Cc1ccccc1)C(=O)NCC1CCN(c2ccncc2)CC1 | 0.03 K
CN(c1ccc(O)cc1)S(=O)(=O)c1ccc2ccccc2c1 | 0.31 K
COc1ccc(CC(=O)NCCNC(=O)c2ccc(C)c(F)c2)cc1 | -0.13 K
COC(=O)c1cc(NC(=O)CN2C(=O)NC(C)(c3ccc4ccccc4c3)C2=O)cc(C(=O)OC)c1 (stereo not shown) | 0.19 K
Cc1ccc2c(CC(=O)Nc3ccccc3Cc3ccccc3)coc2c1 | 0.06 K
O=C1CCc2cc(NC(=O)c3cccnc3)ccc2N1 | -0.13 K
COc1cccc(CCNC(C(N)=O)c2ccccc2)c1 (stereo not shown) | 0.06 K
COc1ccc(C)cc1NCCn1c(C)c(C)n2c3c(=O)[nH]c(=O)n(C)c3nc12 | -0.01 K
O=C(c1sc2ccccc2c1Cl)N1CCCN(c2nnc(C(F)(F)F)s2)CC1 | 0.01 K
COC(=O)c1ccc2[nH]c3c(c2c1)CN(S(C)(=O)=O)CC3 | 0.16 K
Nc1ncnc(N2Cc3cccc(Br)c3C2)c1Cl | -0.04 K
Cn1c(COc2nc(-c3ccccc3Cl)no2)cc(=O)n(C)c1=O | 0.09 K
O=C1NC(=O)C(=Cc2cn(-c3ccccc3)nc2-c2cc3ccccc3oc2=O)C(=O)N1 | -0.13 K
COc1cccc(N2CCCC(NC(=O)CCc3cnccn3)C2)c1 (stereo not shown) | -0.13 K
NC(=O)c1ccc(NC(=O)CSc2nnc(-c3ccc4c(c3)OCO4)o2)cc1 | 0.01 K

Retrieved by structure from the entries so far:
SMILES | TSA(with NAD+) / Primary screening (TSA) / delta Tm (K)
CN(Cc1ccccc1)C(=O)NCC1CCN(c2ccncc2)CC1 | 0.03 K
Nc1ncnc(N2Cc3cccc(Br)c3C2)c1Cl | -0.04 K
NC(=O)c1ccc(S(=O)(=O)N2CCN(CC(O)c3ccccc3)CC2)cc1 (stereo not shown) | 0.06 K
O=C1NC(=O)C(=Cc2cn(-c3ccccc3)nc2-c2cc3ccccc3oc2=O)C(=O)N1 | -0.13 K
Cc1ccc(CSc2nc3ccsc3c(=O)n2C)cc1 | -0.04 K
NC(=O)CC1CCN(C(=O)c2ccn(-c3cccc(F)c3)n2)CC1 | -0.16 K

More structures follow.

SMILES | TSA(with NAD+) / Primary screening (TSA) / delta Tm (K)
O=C(C1=C(O)C(=O)N(CCCN2CCOCC2)C1c1ccccn1)c1ccco1 (stereo not shown) | 0.05 K
O=C1NC(=S)N/C1=C/c1ccc(-c2ccccc2F)o1 | -0.01 K
CCCOc1ccc(C(=O)C2=C(O)C(=O)N(CCN3CCOCC3)C2c2ccco2)cc1 (stereo not shown) | -0.06 K
NC(=O)c1cc2c(ccc3ccccc32)o/c1=N\c1ccc(Br)cc1 | -0.16 K
COc1ccc(N(C)S(=O)(=O)c2cccc(C(=O)Nc3ccc(OC)c(OC)c3)c2)cc1 | -0.04 K
CN(c1ccc(OCc2ccccc2C#N)cc1)S(=O)(=O)c1ccccc1 | -0.26 K
NC(=O)c1cccc(CCNC(=O)CCC(=O)c2ccc3c(c2)OCCO3)c1 | 0.09 K
O=C(NC1CCOc2ccccc21)c1ccc2c(=O)n3c(nc2c1)CCC3 (stereo not shown) | -0.11 K
CC(Nc1ccnc(CC#N)c1)C(=O)N1CCCCC1C (stereo not shown) | -0.15 K
COc1ccc(NC(=O)C2=COCCO2)cc1Cc1ccccc1 | -0.01 K
CCOCc1cn(CC(=O)c2ccc(CC)cc2)c(C)nc1=N | -0.03 K
CC(N)CCCO (stereo not shown) | -0.06 K
O=C(NCC1CC2c3ccccc3C1c1ccccc12)Nc1cccnn1 (stereo not shown) | -0.26 K
COC(=O)c1ccc2[nH]c(CNC(=O)CSC)nc2c1 | -0.18 K
CCN(CC)S(=O)(=O)c1cccc(C(=O)N[C@H](C(=O)NCC23CC4CC(CC(C4)C2)C3)C(C)C)c1 | -0.09 K
CN(Cc1cnccn1)C(=O)Nc1ccc2c(c1)CCCN2C | -0.13 K
Cn1c(-c2ccccc2)c(CO)c2ccccc21 | -0.02 K
CC(N)CCCN (stereo not shown) | -0.08 K
C[C@H](NC(N)=O)C(=O)OCC(=O)Nc1ccc(C(N)=O)cc1 | -0.11 K
NC(=O)COC(=O)C1CC(=O)N(c2ccc3c(c2)OCCO3)C1 (stereo not shown) | -0.18 K
CC(CC(O)c1ccccc1)NC(=O)c1cccc(S(=O)(=O)NCC2CCCO2)c1 (stereo not shown) | -0.08 K
CNC(=O)C1CNc2ccccc2O1 (stereo not shown) | -0.18 K
COc1ccc2cc(C3(C)NC(=O)N(CC(=O)NCC45CC6CC(CC(C6)C4)C5)C3=O)ccc2c1 (stereo not shown) | -0.06 K
CCc1nn2c(=O)cc(CNc3cc(Cl)ccc3F)nc2s1 | 0.09 K

SMILES | TSA(with NAD+) / Primary screening (TSA) / delta Tm (K)
CCCn1ccnc1S(=O)(=O)CC(=O)Nc1ccc(C(N)=O)cc1 | 0.02 K
NCCCCN | -0.32 K
Nc1ncnc2c1cnn2-c1ccccc1 | 0.26 K
Oc1ccc(Cl)cc1/C=N/c1ccccc1 | -0.05 K
COc1ccc(N(C)S(=O)(=O)c2cccc(C(=O)NCCCOc3cccc(C)c3)c2)cc1 | -0.09 K
CCc1cc2c(N3CCCC3)nc(C)nc2s1 | -0.72 K
CCOC(=O)c1c(C)[nH]c(C)c1C(=O)COC(=O)c1cccc(S(=O)(=O)N2CC3(C)CC2CC(C)(C)C3)c1 (stereo not shown) | 0.12 K
O=C(Nc1cccc2ccccc12)N1CCC(c2ccc(O)cc2)CC1 | -0.11 K
COC(C)[C@H](C)N (stereo partly shown) | -0.09 K
CCC(CC)N(c1ccc(C)c(C)c1)S(=O)(=O)c1cccc(C(N)=O)c1 | -0.01 K
O=C(c1cnc(-c2ccccc2)nc1)c1cc(Br)ccc1O | 0.09 K
O=C(O)Cn1nc(-c2ccccc2)ccc1=O | 0.05 K
N#Cc1ccc(S(=O)(=O)N2CCN(c3ncnc4cc(Cl)ccc34)CC2)cc1 | 0.05 K
COC(=O)c1c(C)[nH]c(C(=O)C(C)OC(=O)c2ccc(C(N)=O)cc2)c1C (stereo not shown) | 0.08 K
O=C(NC1CCS(=O)(=O)c2ccccc21)C1=Cc2ccccc2OC1 (stereo not shown) | -0.05 K
O=c1[nH]c(CN2CCN(c3ncnc4sc5c(c34)CCCCC5)CC2)nc2sc3c(c12)CCCC3 | -0.02 K
Cc1ccc2[nH]c(SCc3cc(=O)oc4ccc5ccccc5c34)nc2c1 | 0.02 K
CC(O)c1nc2ccccc2n1Cc1cnn(C)c1C(F)(F)F (stereo not shown) | -0.11 K
CC(NCC1(N(C)C)CCOCC1)c1ccc(S(C)(=O)=O)cc1 (stereo not shown) | -0.01 K
CCN(CC)C(=O)Nc1ccc(C(C)NC(=O)c2cc3c(F)cccc3[nH]2)cc1 (stereo not shown) | 0.15 K
CCCNc1nnc(S)s1 | -0.33 K
CCc1cc2c(N3CCN(CCCc4nc(-c5cccs5)no4)CC3)ncnc2s1 | 0.05 K
